From article PMC10221034 (2023)
Numbering of substitutions follows the chain as printed. No constants are given. Whether binding was seen depends on the method and setting. A result given as binding can be weak or reduced; the word gives no strength.

Assays:
Experiment in all cases: far-Western, overlay or dot blot; rTpiA (200 ng) separated by SDS-PAGE and transferred onto PVDF; membrane blocked with 5% BSA in TBST, incubated 90 min with 30 µg/mL plasminogen at 25 °C; bound plasminogen probed with rabbit polyclonal anti-plasminogen and HRP secondary antibody; both purified
[1] = molecular target: T1, rTpiA K206A (Streptococcus pneumoniae D39) (UniProt Q04JH4)
T1 sequence: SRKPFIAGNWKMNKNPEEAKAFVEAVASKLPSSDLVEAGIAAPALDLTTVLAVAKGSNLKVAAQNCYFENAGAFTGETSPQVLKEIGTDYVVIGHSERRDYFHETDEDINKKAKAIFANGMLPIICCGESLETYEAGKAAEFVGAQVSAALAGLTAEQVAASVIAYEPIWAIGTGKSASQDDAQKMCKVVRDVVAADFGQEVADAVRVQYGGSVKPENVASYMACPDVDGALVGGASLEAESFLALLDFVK

[2] = molecular target: T2, rTpiA K61A (Streptococcus pneumoniae D39) (UniProt Q04JH4)
T2 sequence: T1 sequence with K60A, A205K

[3] = molecular target: T3, rTpiA K30A (Streptococcus pneumoniae D39) (UniProt Q04JH4)
T3 sequence: T1 sequence with K29A, A205K

[4] = molecular target: T4, rTpiA K139A (Streptococcus pneumoniae D39) (UniProt Q04JH4)
T4 sequence: T1 sequence with K138A, A205K

[5] = molecular target: T5, rTpiA K12A (Streptococcus pneumoniae D39) (UniProt Q04JH4)
T5 sequence: T1 sequence with K11A, A205K

[6] = molecular target: T6, rTpiA K113A (Streptococcus pneumoniae D39) (UniProt Q04JH4)
T6 sequence: T1 sequence with K112A, A205K

Measured: binding

human plasma plasminogen
binds: [1] | [2] | [3] | [4] | [5] | [6]
